According to US8143212B2 (Vicuron Pharmaceuticals Inc., priority 2002, dated 2012):

Tested on: N,N′-diacetyl-Lys-D-Ala-D-Ala
Assay: Isothermal titration calorimetry of tri-peptide binding, with and without HSA (Table 39)

CN[C@H](CC(C)C)C(=O)N[C@H]1C(=O)N[C@@H](CC(N)=O)C(=O)N[C@H]2C(=O)N[C@H]3C(=O)N[C@H](C(=O)N[C@H](C(=O)O)c4cc(O)cc(O)c4-c4cc3ccc4O)[C@H](O)c3ccc(c(Cl)c3)Oc3cc2cc(c3O[C@@H]2O[C@H](CO)[C@@H](O)[C@H](O)[C@H]2O[C@H]2C[C@](C)(N)[C@H](O)[C@H](C)O2)Oc2ccc(cc2Cl)[C@H]1O [Vancomycin]
ΔH (T 10 ° C., [HSA] 0 μM): -9.49 kcal/mol | ΔS (T 10 ° C., [HSA] 0 μM): −6.80 eu | ΔH (T 25 ° C., with HSA 513 μM): -10.09 kcal/mol
